Results reported in paper PMC12210952.
No constants are given. Whether binding was seen depends on the method and setting. Binding seen in cells or lysates may run through a third protein. Some entries that bind do so weakly or less than the wild type. For some assays here: Sequences can lack the tags named with a protein.

Amino acid sequences for entries named in this document (tags omitted).
UniProt P13164: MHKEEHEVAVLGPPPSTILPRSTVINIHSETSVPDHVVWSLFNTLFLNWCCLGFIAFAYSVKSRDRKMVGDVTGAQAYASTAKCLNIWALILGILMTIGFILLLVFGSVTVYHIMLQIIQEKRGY

Tests used:
IFITM1-YN (human) = IFITM1-YN (human) (UniProt P13164); test: split reporter; BiFC in living HepG2.215 cells transiently transfected with IFITM1-YN + ABHD16A-YC (control YN+YC), 24 hours, YFP signal by confocal microscope
Flag-IFITM1 (human) = Flag-IFITM1 (human) (UniProt P13164); test: co-IP; HepG2.215 cells cotransfected for 24 hours; lysate (20 mM Tris 7.5, 150 mM NaCl, 1% Triton X-100, 1% sodium deoxycholate, 0.1% SDS) immunoprecipitated with Flag antibody on Protein A + G magnetic beads, 4°C, 12 hours; blots with Flag and GFP antibodies

Row | Binder | binding (IFITM1-YN (human)) | binding (Flag-IFITM1 (human))
1 | ABHD16A-YC (enzyme, UniProt O95870 1-558) MAKLLSCVLGPRLYKIYRERDSERAPASVPETPTAVTAPHSSSWDTYYQPRALEKHADSILALASVFWSISYYSSPFAFFYLYRKGYLSLSKVVPFSHYAGTLLLLLAGVACLRGIGRWTNPQYRQFITILEATHRNQSSENKRQLANYNFDFRSWPVDFHWEEPSSRKESRGGPSRRGVALLRPEPLHRGTADTLLNRVKKLPCQITSYLVAHTLGRRMLYPGSVYLLQKALMPVLLQGQARLVEECNGRRAKLLACDGNEIDTMFVDRRGTAEPQGQKLVICCEGNAGFYEVGCVSTPLEAGYSVLGWNHPGFAGSTGVPFPQNEANAMDVVVQFAIHRLGFQPQDIIIYAWSIGGFTATWAAMSYPDVSAMILDASFDDLVPLALKVMPDSWRGLVTRTVRQHLNLNNAEQLCRYQGPVLLIRRTKDEIITTTVPEDIMSNRGNDLLLKLLQHRYPRVMAEEGLRVVRQWLEASSQLEEASIYSRWEVEEDWCLSVLRSYQAEHGPDFPWSVGEDMSADGRRQLALFLARKHLHNFEATHCTPLPAQNFQMPWHL | binds | 
2 | ABHD16A-EGFP (enzyme, UniProt O95870 1-558) MAKLLSCVLGPRLYKIYRERDSERAPASVPETPTAVTAPHSSSWDTYYQPRALEKHADSILALASVFWSISYYSSPFAFFYLYRKGYLSLSKVVPFSHYAGTLLLLLAGVACLRGIGRWTNPQYRQFITILEATHRNQSSENKRQLANYNFDFRSWPVDFHWEEPSSRKESRGGPSRRGVALLRPEPLHRGTADTLLNRVKKLPCQITSYLVAHTLGRRMLYPGSVYLLQKALMPVLLQGQARLVEECNGRRAKLLACDGNEIDTMFVDRRGTAEPQGQKLVICCEGNAGFYEVGCVSTPLEAGYSVLGWNHPGFAGSTGVPFPQNEANAMDVVVQFAIHRLGFQPQDIIIYAWSIGGFTATWAAMSYPDVSAMILDASFDDLVPLALKVMPDSWRGLVTRTVRQHLNLNNAEQLCRYQGPVLLIRRTKDEIITTTVPEDIMSNRGNDLLLKLLQHRYPRVMAEEGLRVVRQWLEASSQLEEASIYSRWEVEEDWCLSVLRSYQAEHGPDFPWSVGEDMSADGRRQLALFLARKHLHNFEATHCTPLPAQNFQMPWHL |  | binds
